Test results taken from PubChem BioAssay AID328 (DTP/NCI, 2004).
The list shows only some results of the screen, not a fair sample: it gathers tests that were run many times, whatever their T/C, doses with no T/C, and many T/C values between a quarter and a half above the control. Further doses and runs are listed elsewhere. T/C gives the treated animals as a percentage of the vehicle group. Some entries give survivors of the animals treated and no T/C: the source files T/C as zero there, which appears to mark a toxic dose or a test without result, not a measured value. Some survivor counts are full or nearly so, which does not show that the dose was tolerated: survival well below the control is almost never listed, so the zero probably covers shortened survival too. Survivors were counted at the toxicity check, usually on the fifth day, unless a day is given; later deaths do not show. Schedule codes are those of the source, taken here to give the interval after Q, in days (D) or hours (H), and the number of doses after X. Some entries hold several experiments; the values are given in rising order. Where survival is the endpoint, this PubChem deposit counts one and a half times the control or more as active, and values a quarter to a half above the control carry no call in these data; other NCI protocols may use other cut-offs. Some T/C values carry the count of animals alive at the toxicity check (mostly the fifth day); without a count, all were alive then.

System: BDF1 mice, P388 leukemia ip, median survival T/C
Assay: NCI In Vivo Anticancer Drug Screen. Data for tumor model P388 Leukemia (intraperitoneal) in B6D2F1 (BDF1) mice
Conditions: T/C endpoint: median survival time, higher T/C = longer survival
Outline: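 Compound-treated tumour-bearing mice were compared with vehicle-treated controls. Survival was recorded, and the value is the treated-group measurement divided by the control-group measurement (T/C).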

[1] = dose: 100.0 mg/kg/injection, schedule: Q01DX009 (ip), vehicle: water
[2] = dose: 100.0 mg/kg/injection, schedule: Q01DX009 (ip), vehicle: saline with Tween-80
[3] = dose: 50.0 mg/kg/injection, schedule: Q01DX009 (ip), vehicle: saline

## Cc1cc(=O)c2c(C)cccc2[nH]1
dose: 6.25 mg/kg/injection, schedule: Q01DX009 (ip), vehicle: saline with Tween-80
  T/C: 136 % of control
dose: 12.5 mg/kg/injection, schedule: Q01DX009 (ip), vehicle: saline with Tween-80
  T/C: 136 % of control

## O=[N+]([O-])c1ccc(N=N/C(Cc2ccccc2)=N\Nc2ccccc2)cc1
dose: 400.0 mg/kg/injection, schedule: Q01DX009 (ip), vehicle: Klucel (hydroxypropylcellulose) (HPC)
  survivor count: 5 of 6

## CC(=O)C(C)[P+](c1ccccc1)(c1ccccc1)c1ccccc1 (configuration not stated)
dose: 50.0 mg/kg/injection, schedule: Q01DX009 (ip), vehicle: water
  survivor count: 2 of 6
[1]
  survivor count: 0 of 6

## CS(=O)(=O)c1ncc2cnccn12
dose: 200.0 mg/kg/injection, schedule: Q04DX003 (ip), vehicle: water
  survivor count: 5 of 6
dose: 400.0 mg/kg/injection, schedule: Q04DX003 (ip), vehicle: water
  survivor count: 2 of 6

## COC(=O)CSc1ncc2cnccn12
[1]
  survivor count: 6 of 6
dose: 200.0 mg/kg/injection, schedule: Q01DX009 (ip), vehicle: water
  survivor count: 6 of 6
dose: 400.0 mg/kg/injection, schedule: Q01DX009 (ip), vehicle: water
  survivor count: 5 of 6

## CCN=C(N)Nc1ccc(NC(=O)c2ccc(C(=O)Nc3ccc(NC(N)=NCC)cc3)cc2)cc1
dose: 400.0 mg/kg/injection, schedule: Q04DX003 (ip), vehicle: saline with Tween-80
  survivor count: 3 of 6

## O=[N+]([O-])c1cc([N+](=O)[O-])c2ccccc2c1NS(=O)(=O)c1ccc(Br)cc1
[2]
  T/C: 132 % of control

## c1ccc(-c2nnn(-c3ccccc3)n2)cc1
[2]
  survivor count: 5 of 6

## Oc1cc(CN(CCCl)CCCl)c(O)cc1CN(CCCl)CCCl
dose: 0.63 mg/kg/injection, schedule: Q01DX010 (ip), vehicle: saline
  survivor count: 3 of 6
dose: 5.0 mg/kg/injection, schedule: Q01DX010 (ip), vehicle: saline
  T/C: 131 % of control

## CNc1n[n+](-c2ccccc2)no1
dose: 6.3 mg/kg/injection, schedule: Q01DX009 (ip), vehicle: saline
  T/C: 141 % of control
dose: 12.5 mg/kg/injection, schedule: Q01DX009 (ip), vehicle: saline
  T/C: 119 [5 of 6 alive], 138 [5 of 6 alive], 147, 149, 171 % of control
dose: 25.0 mg/kg/injection, schedule: Q01DX009 (ip), vehicle: saline
  T/C: 120 [5 of 6 alive], 135 [5 of 6 alive], 148, 189, 203 % of control
[3]
  T/C: 101 and 112 % of control [5 of 6 alive]
  survivor count: 5 of 6 and 6 of 6
dose: 50.0 mg/kg/injection, schedule: Q04DX003 (ip), vehicle: saline
  survivor count: 4 of 6
dose: 100.0 mg/kg/injection, schedule: Q01DX009 (ip), vehicle: saline
  survivor count: 0 of 6 and 5 of 6
dose: 100.0 mg/kg/injection, schedule: Q04DX003 (ip), vehicle: saline
  survivor count: 3 of 6 and 4 of 6
dose: 200.0 mg/kg/injection, schedule: Q01DX009 (ip), vehicle: saline
  survivor count: 0 of 6
dose: 200.0 mg/kg/injection, schedule: Q04DX003 (ip), vehicle: saline
  survivor count: 0 of 6
dose: 400.0 mg/kg/injection, schedule: Q01DX009 (ip), vehicle: saline
  survivor count: 0 of 6
dose: 400.0 mg/kg/injection, schedule: Q04DX003 (ip), vehicle: saline
  survivor count: 1 of 6

## C#CC[N+]1=CN(c2ccc(C)cc2)Cc2cc(C)ccc21
dose: 150.0 mg/kg/injection, schedule: Q04DX003 (ip), vehicle: Klucel (hydroxypropylcellulose) (HPC)
  T/C: 141 % of control
dose: 200.0 mg/kg/injection, schedule: Q01DX009 (ip), vehicle: Klucel (hydroxypropylcellulose) (HPC)
  survivor count: 3 of 6
dose: 225.0 mg/kg/injection, schedule: Q04DX003 (ip), vehicle: Klucel (hydroxypropylcellulose) (HPC)
  survivor count: 4 of 6 and 5 of 6
dose: 335.0 mg/kg/injection, schedule: Q04DX003 (ip), vehicle: Klucel (hydroxypropylcellulose) (HPC)
  survivor count: 4 of 6

## CCCCNC(C)(C)C(SS)c1cccs1 (configuration not stated)
dose: 400.0 mg/kg/injection, schedule: Q04DX003 (ip), vehicle: other
  survivor count: 5 of 6

## Cc1ccc(C(=O)N=[N+]=[N-])o1
[2]
  survivor count: 0 of 6
dose: 200.0 mg/kg/injection, schedule: Q01DX009 (ip), vehicle: saline with Tween-80
  survivor count: 0 of 6

## O=NN(CCCl)C(=O)NC1CSCSC1
dose: 1.1 mg/kg/injection, schedule: Q01DX009 (ip), vehicle: saline with Tween-80
  T/C: 126 % of control
dose: 1.7 mg/kg/injection, schedule: Q01DX009 (ip), vehicle: saline with Tween-80
  T/C: 146 % of control
dose: 18.0 mg/kg/injection, schedule: Q04DX003 (ip), vehicle: saline with Tween-80
  T/C: 136 % of control
dose: 25.0 mg/kg/injection, schedule: Q01DX009 (ip), vehicle: saline with Tween-80
  survivor count: 6 of 6
dose: 50.0 mg/kg/injection, schedule: Q01DX009 (ip), vehicle: saline with Tween-80
  survivor count: 5 of 6
[2]
  survivor count: 4 of 6

## O=c1c2ccccc2nnn1Cc1ccco1
dose: 100.0 mg/kg/injection, schedule: Q01DX005 (ip), vehicle: saline with Tween-80
  survivor count: 5 of 5

## CC(C)[C@]12O[C@H]1[C@@H]1O[C@]13[C@]1(O[C@H]1C[C@H]1C4=C(C(=O)OC4)[C@@H](O)C[C@@]13C)[C@@H]2O
dose: 0.13 mg/kg/injection, schedule: Q01DX009 (ip), vehicle: saline + alcohol
  T/C: 144 % of control
dose: 0.25 mg/kg/injection, schedule: Q01DX009 (ip), vehicle: saline + alcohol
  T/C: 142 % of control [9 of 10 alive]
dose: 0.5 mg/kg/injection, schedule: Q01DX009 (ip), vehicle: saline + alcohol
  survivor count: 2 of 10
dose: 1.0 mg/kg/injection, schedule: Q01DX009 (ip), vehicle: saline + alcohol
  survivor count: 0 of 10
dose: 12.5 micrograms/kg/injection, schedule: Q01DX009 (ip), vehicle: saline + alcohol
  survivor count: 10 of 10
dose: 25.0 micrograms/kg/injection, schedule: Q01DX009 (ip), vehicle: saline + alcohol
  survivor count: 8 of 10
dose: 50.0 micrograms/kg/injection, schedule: Q01DX009 (ip), vehicle: saline + alcohol
  survivor count: 10 of 10
dose: 50.0 micrograms/kg/injection, schedule: Q01DX009 (ip), vehicle: saline
  T/C: 128 % of control
dose: 200.0 micrograms/kg/injection, schedule: Q01DX009 (ip), vehicle: saline + alcohol
  survivor count: 10 of 10
dose: 400.0 micrograms/kg/injection, schedule: Q01DX009 (ip), vehicle: saline + alcohol
  survivor count: 8 of 10

## COC1C=COC2(C)Oc3c(C)c(O)c4c(c3C2=O)/C(=N/C2CCC(O)OC2C)C=C(NC(=O)/C(C)=C\C(=O)C2CC2C(O)C(C)C(O)C(C)C(OC(C)=O)C1C)C4=O (configuration not stated)
dose: 75.0 mg/kg/injection, schedule: Q01DX009 (ip), vehicle: saline with Tween-80
  survivor count: 6 of 6
